# Results published in the supplement of paper PMC8732350.
# Values joined by “and” are separate entries in the source; they are usually repeats but may differ in a detail not shown here. Identical values can stand only once. Counter-ions that a name gives are not always drawn. ± gives the standard deviation of the averaged measurements. Some of the results follow. Most values lie within the scatter of the assay; repeated measurements hardly agree.
# System: A549
# Assay: surface PD-L1 immunofluorescence intensity relative to IFN-gamma-only control (ratio); higher = more PD-L1 expression
# Details: 10 µM; exposure time 24 h; IFN-gamma 100 ng/mL
row,Structure (SMILES),surface PD-L1 immunofluorescence intensity
1,COc1ccc(C(Cl)=C(c2ccc(OC)cc2)c2ccc(OC)cc2)cc1 [Chlorotrianisene],0.938
2,Cc1oncc1C(=O)Nc1ccc(C(F)(F)F)cc1 [Leflunomide],1 ± 0.012
3,O=c1[nH]c2cc(C(F)(F)F)c(N3CCOCC3)cc2n(CP(=O)(O)O)c1=O,0.939
4,O=C(O)c1cccnc1Nc1cccc(C(F)(F)F)c1 [Niflumic acid],0.9 ± 0.02
5,CCOC(=O)[C@H](CCc1ccccc1)N[C@@H](C)C(=O)N1Cc2ccccc2C[C@H]1C(=O)O [Quinapril HCl],1.02
6,Cn1cc(-c2ccc3ncc(Cc4ccc5ncccc5c4)n3n2)cn1,0.968 ± 0.015
7,CN1C(C)(C)CCCC1(C)C [Pempidine tartrate],0.992
8,O=c1[nH]ccc2c(S(=O)(=O)N3CCCNCC3)cccc12 [HA 1100 hydrochloride],0.99
9,Cc1cc(NC(=O)Nc2ccc(N(C)C)cc2)c2cc(F)cc(F)c2n1,0.972
10,Cc1onc(-c2c(Cl)cccc2Cl)c1C(=O)N[C@@H]1C(=O)N2[C@@H]1SC(C)(C)[C@@H]2C(=O)O [Dicloxacillin sodium salt hydrate],1.02
11,CC1(C)Oc2ccc(C#N)cc2[C@@H](N2CCCC2=O)[C@@H]1O [Levcromakalim],0.959
12,CN(C)/N=N/c1[nH]cnc1C(N)=O [Dacarbazine],1.02
13,CC1C(=O)OC2C(O)C34C5CC(C(C)(C)C)C36C(OC(=O)C6O)OC4(C(=O)O5)C12O (centres undefined) [Ginkgolide B],0.978
14,C[N+](C)(C)CCCCCC[N+](C)(C)C [Hexamethonium dibromide dihydrate],0.85
15,CC[N+](C)(C)Cc1ccccc1Br [Bretylium tosylate],0.974
16,CCCCCCCCc1ccc(-c2ccc(C(=O)O)cc2)cc1,1.03
17,N#Cc1c(O)c2c(-c3ccc(-c4ccccc4O)cc3)csc2[nH]c1=O,1.1 and 1.06
18,CCCCC(=O)O[C@H]1CC[C@H]2[C@@H]3CCc4cc(O)ccc4[C@H]3CC[C@]12C [Estradiol valerate],0.94
19,CCCCC(=O)O[C@H]1CC[C@H]2[C@@H]3CCc4cc(O)ccc4[C@H]3CC[C@]12C [Estradiol Valerate],1.03
20,N=C(N)c1ccc(OCCCCCOc2ccc(C(=N)N)cc2)cc1 [Pentamidine],1.07
21,N=C(N)c1ccc(OCCCCCOc2ccc(C(=N)N)cc2)cc1 [Pentamidine isethionate],1.08
22,N=C(N)SCCc1ccc(OCc2ccc([N+](=O)[O-])cc2)cc1 [KB-R7943 mesylate],0.936
23,O=c1cc(-c2cccc3c2Sc2ccccc2S3)oc(N2CCOCC2)c1,0.977 and 1.05
24,Fc1ccc(C(c2ccc(F)cc2)N2CCN(C/C=C/c3ccccc3)CC2)cc1 [Flunarizine dihydrochloride],1.02 ± 0.091
25,Oc1ccc([C@H]2COc3cc(O)ccc3C2)cc1 [Equol],1.06
26,Cc1ccc(Nc2c(F)cccc2Cl)c(CC(=O)O)c1 [Lumiracoxib (COX-189)],1.02
27,O=C(O)c1cc(O)c2c(c1)C(=O)c1cccc(O)c1C2=O [Rhein (Monorhein)],1.09

row,Structure (SMILES),surface PD-L1 immunofluorescence intensity
1,N=C(N)NC(=N)Nc1ccccc1 [1-Phenylbiguanide hydrochloride],1.09
2,NCCNC(=O)c1ccc(Cl)cn1 [Lazabemide hydrochloride],1
3,CN[C@@H]1[C@H](O[C@H]2[C@H](O[C@H]3[C@H](O)[C@@H](O)[C@H](N=C(N)N)[C@@H](O)[C@@H]3N=C(N)N)O[C@@H](C)[C@]2(O)C=O)O[C@@H](CO)[C@H](O)[C@H]1O [Streptomycin sulfate],1.02 ± 0.039
4,OCCOCCN1CCN(C2=Nc3ccccc3Sc3ccccc32)CC1 [Quetiapine hemifumarate],1.02
5,CC(C)N1Cc2cc(S(C)(=O)=O)ccc2N(CCN2CC=C(c3c[nH]c4cc(F)ccc34)CC2)S1(=O)=O,1.04
6,CCC(=O)O[C@@H](O[P@](=O)(CCCCc1ccccc1)CC(=O)N1C[C@H](C2CCCCC2)C[C@H]1C(=O)O)C(C)C [Fosinopril sodium (Monopril)],1.19
7,CCC(=O)O[C@@H](O[P@](=O)(CCCCc1ccccc1)CC(=O)N1C[C@H](C2CCCCC2)C[C@H]1C(=O)O)C(C)C [Fosinopril],0.994
8,Cn1cnc2c(NCc3ccccc3)nc(NCCO)nc21 [Olomoucine],0.97
9,Cc1cc(C(=O)NOCCO)c(Nc2ccc(I)cc2F)n(C)c1=O,0.904
10,CC1(C)S[C@@H]2[C@H](NC(=O)[C@H](N)c3ccc(O)cc3)C(=O)N2[C@H]1C(=O)O [Amoxicillin],1.02
11,CC1(C)S[C@@H]2[C@H](NC(=O)[C@H](N)c3ccc(O)cc3)C(=O)N2[C@H]1C(=O)O [Amoxicillin (Amoxycillin)],0.991
12,CC(=O)N(O)[C@@H]1c2cc(C#N)ccc2OC(C)(C)[C@H]1O,1.03
13,O=C(CCc1ccc(O)cc1)c1c(O)cc(O)cc1O[C@@H]1O[C@H](CO)[C@@H](O)[C@H](O)[C@H]1O [Phlorizin (Phloridzin)],0.84
14,Oc1ncnc2[nH]ncc12 [Allopurinol (Zyloprim)],0.887
15,Oc1ncnc2[nH]ncc12 [Allopurinol],1.01
16,CCCCCCC[N+](CC)(CC)CCCCc1ccc(Cl)cc1 [Clofilium tosylate],1.13
17,CNCCCC1c2ccccc2C=Cc2ccccc21 [Protriptyline hydrochloride],0.961
18,CCOC(=O)C1=C[C@@H](OC(CC)CC)[C@H](NC(C)=O)[C@@H](N)C1 [Oseltamivir phosphate (Tamiflu)],0.834
19,C[C@]12CCC(=O)C=C1CC[C@@H]1[C@@H]2[C@@H](O)C[C@@]2(C)[C@H]1CC[C@]2(O)C(=O)CO [Hydrocortisone base],0.795
20,C[C@]12CCC(=O)C=C1CC[C@@H]1[C@@H]2[C@@H](O)C[C@@]2(C)[C@H]1CC[C@]2(O)C(=O)CO [Hydrocortisone (Cortisol)],0.814
21,Cc1onc(-c2ccccc2)c1-c1ccc(S(N)(=O)=O)cc1 [Valdecoxib],1.01
22,COc1ccc(CCN(C)CCCC(C#N)(c2ccc(OC)c(OC)c2)C(C)C)cc1OC (centres undefined) [Verapamil hydrochloride],0.899
23,CCCc1cc(=O)[nH]c(=S)[nH]1 [Propylthiouracil],1.07
24,C[N+]1(CCCCC[N+]2(C)CCCC2)CCCC1 [Pentolinium bitartrate],0.936
25,O=C(Nc1ccccc1)c1cc([N+](=O)[O-])ccc1Cl,1.03 and 1.05
26,C=C1C(=O)O[C@@H]2/C=C(\C)CC/C=C(\C)CC[C@@H]12 [Costunolide],1.05
27,c1ccc2c(Cc3c[nH]c4ccccc34)c[nH]c2c1 [Diindolylmethane],1.04

row,Structure (SMILES),surface PD-L1 immunofluorescence intensity
1,Cc1sc(N)c(C(=O)c2cccc(C(F)(F)F)c2)c1C,0.996
2,COc1ccc(OC)c2c(=S)c3ccccc3[nH]c12,1.11
3,COc1ccc(-n2[nH]c3c4c(ncc3c2=O)CCCCC4)cc1,1.01
4,CO/N=C(\C(=O)N[C@@H]1C(=O)N2C(C(=O)OCOC(=O)C(C)(C)C)=C(/C=C\c3scnc3C)CS[C@H]12)c1csc(N)n1 [Cefditoren pivoxil],1.08
5,CC(C)c1ccc(NC(=O)Cn2cnc3c2c(=O)n(C)c(=O)n3C)cc1,1.1
6,"Cc1c(C2CCN(CCc3ccccc3)CC2)noc1-c1ccc(Cl)cc1 [L-741,742 hydrochloride]",1.08
7,O=C(O)c1ccc(-c2ccc3cc(O)c(C45CC6CC(CC(C6)C4)C5)cc3c2)cc1,1.01
8,C[C@]12CC[C@@H]3c4ccc(O)cc4CC[C@H]3[C@@H]1CC[C@@H]2O [Estradiol],1.1
9,C[C@]12CC[C@@H]3c4ccc(O)cc4CC[C@H]3[C@@H]1CC[C@@H]2O [Estradiol-17 beta],0.927
10,C[C@]12CC[C@@H]3c4ccc(O)cc4CC[C@H]3[C@@H]1CC[C@@H]2O [17b-Estradiol],1.06
11,Cc1c(NC(=O)N2CCOCC2)ccc2c1c1ccccc1n2C(C)C,0.998
12,CCCN(CCC)S(=O)(=O)c1ccc(C(=O)O)cc1 [Probenecid],0.941
13,CC(=O)[C@H]1CC[C@H]2[C@@H]3CCC4=CC(=O)CC[C@]4(C)[C@H]3CC[C@]12C [Progesterone (Prometrium)],0.854
14,CC(=O)[C@H]1CC[C@H]2[C@@H]3CCC4=CC(=O)CC[C@]4(C)[C@H]3CC[C@]12C [Progesterone],1.03 ± 0.037
15,OC(CN1CCC(Cc2ccc(F)cc2)CC1)c1ccc(Cl)cc1 (centres undefined) [Eliprodil],1.04
16,NC(Cc1cc(I)c(Oc2cc(I)c(O)c(I)c2)c(I)c1)C(=O)O (centres undefined) [Thyroxine (L)],0.963
17,CN(C)CC/C=C1/c2ccccc2Sc2ccc(Cl)cc21 [Chlorprothixene hydrochloride],1.15
18,COc1ccc2[nH]c([S+]([O-])Cc3ncc(C)c(OC)c3C)nc2n1 (centres undefined) [Tenatoprazole],1.02
19,CN(C)CCOC(c1ccccc1)c1ccccc1 [Diphenhydramine hydrochloride],0.866
20,Nc1cccc2c1C(=O)N(C1CCC(=O)NC1=O)C2=O (centres undefined) [Pomalidomide],1.01
21,Oc1ccc(OC2CCCCO2)cc1 (centres undefined) [Deoxyarbutin],1.11
22,O=C(O)C(O)Cc1ccc(O)c(O)c1 (centres undefined) [Sodium Danshensu],0.896
23,N=C(N)NC(=O)Cc1c(Cl)cccc1Cl [Guanfacine hydrochloride],1.05 ± 0.069
24,O=C1Nc2ccccc2/C1=C1/Nc2ccccc2C1=O [Indirubin],1.04
25,Nc1ncnc2c1ncn2[C@@H]1O[C@H](CO)[C@@H](O)[C@H]1O [Adenosine (Adenocard)],0.975
